{"sequences": {"note": "Sequences of proteins named here, by UniProt entry; tags and fusion partners are left off. A change or cut given only in a name is not applied to a line headed by its entry.", "UniProt P16403, whole entry": "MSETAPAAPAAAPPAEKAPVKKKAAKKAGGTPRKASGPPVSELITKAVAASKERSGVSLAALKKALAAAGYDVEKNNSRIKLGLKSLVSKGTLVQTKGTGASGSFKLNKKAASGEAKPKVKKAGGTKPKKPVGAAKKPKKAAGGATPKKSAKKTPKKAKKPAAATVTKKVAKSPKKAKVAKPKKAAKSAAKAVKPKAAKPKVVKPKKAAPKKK", "UniProt O95985": "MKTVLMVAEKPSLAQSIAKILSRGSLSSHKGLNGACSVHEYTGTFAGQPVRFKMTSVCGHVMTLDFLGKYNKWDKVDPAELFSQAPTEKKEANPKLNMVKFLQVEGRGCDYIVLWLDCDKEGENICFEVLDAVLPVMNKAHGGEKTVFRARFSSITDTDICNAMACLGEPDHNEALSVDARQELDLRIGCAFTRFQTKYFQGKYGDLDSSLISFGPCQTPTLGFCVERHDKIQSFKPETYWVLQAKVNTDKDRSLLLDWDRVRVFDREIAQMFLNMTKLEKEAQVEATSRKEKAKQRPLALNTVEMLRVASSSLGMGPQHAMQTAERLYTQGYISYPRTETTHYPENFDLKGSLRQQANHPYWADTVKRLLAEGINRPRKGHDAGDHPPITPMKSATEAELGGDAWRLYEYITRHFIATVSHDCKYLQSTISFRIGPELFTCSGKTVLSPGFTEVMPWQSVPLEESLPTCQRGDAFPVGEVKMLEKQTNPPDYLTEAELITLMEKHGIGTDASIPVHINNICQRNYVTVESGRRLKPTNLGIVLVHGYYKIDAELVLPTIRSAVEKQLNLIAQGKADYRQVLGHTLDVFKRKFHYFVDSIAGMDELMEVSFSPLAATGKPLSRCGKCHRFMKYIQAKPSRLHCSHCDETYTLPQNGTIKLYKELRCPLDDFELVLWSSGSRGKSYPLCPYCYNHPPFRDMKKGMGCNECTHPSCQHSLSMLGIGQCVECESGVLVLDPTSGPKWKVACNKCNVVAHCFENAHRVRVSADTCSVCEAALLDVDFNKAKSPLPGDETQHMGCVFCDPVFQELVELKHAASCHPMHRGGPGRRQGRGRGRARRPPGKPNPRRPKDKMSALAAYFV", "UniProt P35520": "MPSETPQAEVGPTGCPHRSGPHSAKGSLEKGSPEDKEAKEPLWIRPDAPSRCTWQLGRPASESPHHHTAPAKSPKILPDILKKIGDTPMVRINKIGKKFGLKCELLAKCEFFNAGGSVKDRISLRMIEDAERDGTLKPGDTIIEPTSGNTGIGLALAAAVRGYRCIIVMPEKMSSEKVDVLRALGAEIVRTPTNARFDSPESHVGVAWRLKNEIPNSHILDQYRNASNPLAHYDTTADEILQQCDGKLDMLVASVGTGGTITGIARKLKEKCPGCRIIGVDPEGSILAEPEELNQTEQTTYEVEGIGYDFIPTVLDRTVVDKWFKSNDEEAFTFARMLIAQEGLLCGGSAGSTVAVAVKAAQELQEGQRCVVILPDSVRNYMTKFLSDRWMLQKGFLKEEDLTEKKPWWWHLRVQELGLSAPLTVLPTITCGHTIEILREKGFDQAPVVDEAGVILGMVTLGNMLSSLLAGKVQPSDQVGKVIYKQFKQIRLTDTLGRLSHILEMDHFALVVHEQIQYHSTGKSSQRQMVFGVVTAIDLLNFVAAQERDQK", "UniProt P10586, whole entry": "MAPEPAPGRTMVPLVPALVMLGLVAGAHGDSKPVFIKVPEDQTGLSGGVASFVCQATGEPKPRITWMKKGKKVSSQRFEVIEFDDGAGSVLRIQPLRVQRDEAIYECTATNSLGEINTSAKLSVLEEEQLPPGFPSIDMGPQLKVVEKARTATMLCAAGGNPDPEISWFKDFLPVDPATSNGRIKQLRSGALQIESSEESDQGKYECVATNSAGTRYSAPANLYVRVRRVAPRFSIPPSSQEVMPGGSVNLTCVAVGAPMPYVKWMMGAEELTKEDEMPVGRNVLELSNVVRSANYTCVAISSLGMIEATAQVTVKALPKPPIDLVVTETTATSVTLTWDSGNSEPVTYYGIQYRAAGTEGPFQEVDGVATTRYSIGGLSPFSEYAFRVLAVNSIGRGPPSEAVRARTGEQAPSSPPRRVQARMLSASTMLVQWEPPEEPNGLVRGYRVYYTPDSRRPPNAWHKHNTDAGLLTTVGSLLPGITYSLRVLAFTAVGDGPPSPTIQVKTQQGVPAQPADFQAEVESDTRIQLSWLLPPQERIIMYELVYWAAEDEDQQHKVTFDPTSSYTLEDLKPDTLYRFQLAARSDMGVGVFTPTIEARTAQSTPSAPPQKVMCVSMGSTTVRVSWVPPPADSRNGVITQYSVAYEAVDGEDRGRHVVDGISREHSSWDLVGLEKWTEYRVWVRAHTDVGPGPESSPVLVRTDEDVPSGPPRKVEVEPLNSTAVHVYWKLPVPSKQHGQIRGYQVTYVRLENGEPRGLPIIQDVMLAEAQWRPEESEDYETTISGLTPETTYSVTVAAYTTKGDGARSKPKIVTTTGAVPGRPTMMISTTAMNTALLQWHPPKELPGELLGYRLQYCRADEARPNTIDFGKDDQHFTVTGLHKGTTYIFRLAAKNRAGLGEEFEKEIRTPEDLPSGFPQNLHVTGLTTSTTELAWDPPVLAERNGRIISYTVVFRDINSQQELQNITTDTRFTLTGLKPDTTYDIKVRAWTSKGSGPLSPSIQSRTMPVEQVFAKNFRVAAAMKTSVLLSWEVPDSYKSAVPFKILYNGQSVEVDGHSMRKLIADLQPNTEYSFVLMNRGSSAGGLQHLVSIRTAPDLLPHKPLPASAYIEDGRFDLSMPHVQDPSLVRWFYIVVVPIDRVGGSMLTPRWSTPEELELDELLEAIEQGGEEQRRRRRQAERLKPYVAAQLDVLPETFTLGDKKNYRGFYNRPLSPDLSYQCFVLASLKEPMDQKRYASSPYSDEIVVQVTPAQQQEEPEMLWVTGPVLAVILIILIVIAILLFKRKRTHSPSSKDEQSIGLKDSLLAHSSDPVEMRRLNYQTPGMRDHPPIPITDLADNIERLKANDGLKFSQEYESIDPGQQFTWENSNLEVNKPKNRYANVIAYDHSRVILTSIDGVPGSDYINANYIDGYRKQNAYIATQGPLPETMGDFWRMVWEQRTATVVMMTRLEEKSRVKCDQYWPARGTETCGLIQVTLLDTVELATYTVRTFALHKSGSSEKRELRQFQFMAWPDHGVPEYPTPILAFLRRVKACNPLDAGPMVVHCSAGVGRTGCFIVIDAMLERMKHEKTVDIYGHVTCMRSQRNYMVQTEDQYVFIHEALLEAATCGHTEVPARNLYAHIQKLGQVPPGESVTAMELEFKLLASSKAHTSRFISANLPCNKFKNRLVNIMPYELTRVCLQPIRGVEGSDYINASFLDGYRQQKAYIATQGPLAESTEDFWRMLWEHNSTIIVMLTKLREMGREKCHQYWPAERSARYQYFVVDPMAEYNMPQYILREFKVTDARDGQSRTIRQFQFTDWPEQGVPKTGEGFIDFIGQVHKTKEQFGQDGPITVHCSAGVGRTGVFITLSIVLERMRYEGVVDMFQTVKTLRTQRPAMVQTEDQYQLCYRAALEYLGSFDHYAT", "UniProt P07355, whole entry": "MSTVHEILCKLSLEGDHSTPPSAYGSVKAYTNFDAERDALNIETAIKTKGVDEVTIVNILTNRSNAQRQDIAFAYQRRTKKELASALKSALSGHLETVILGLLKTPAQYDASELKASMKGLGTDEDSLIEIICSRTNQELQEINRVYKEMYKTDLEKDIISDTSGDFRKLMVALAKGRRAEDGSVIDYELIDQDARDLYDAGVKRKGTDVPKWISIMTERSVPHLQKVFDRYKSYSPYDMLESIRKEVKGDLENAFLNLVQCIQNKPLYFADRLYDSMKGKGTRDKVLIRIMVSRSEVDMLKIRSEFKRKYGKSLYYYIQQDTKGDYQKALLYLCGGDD", "UniProt P07686": "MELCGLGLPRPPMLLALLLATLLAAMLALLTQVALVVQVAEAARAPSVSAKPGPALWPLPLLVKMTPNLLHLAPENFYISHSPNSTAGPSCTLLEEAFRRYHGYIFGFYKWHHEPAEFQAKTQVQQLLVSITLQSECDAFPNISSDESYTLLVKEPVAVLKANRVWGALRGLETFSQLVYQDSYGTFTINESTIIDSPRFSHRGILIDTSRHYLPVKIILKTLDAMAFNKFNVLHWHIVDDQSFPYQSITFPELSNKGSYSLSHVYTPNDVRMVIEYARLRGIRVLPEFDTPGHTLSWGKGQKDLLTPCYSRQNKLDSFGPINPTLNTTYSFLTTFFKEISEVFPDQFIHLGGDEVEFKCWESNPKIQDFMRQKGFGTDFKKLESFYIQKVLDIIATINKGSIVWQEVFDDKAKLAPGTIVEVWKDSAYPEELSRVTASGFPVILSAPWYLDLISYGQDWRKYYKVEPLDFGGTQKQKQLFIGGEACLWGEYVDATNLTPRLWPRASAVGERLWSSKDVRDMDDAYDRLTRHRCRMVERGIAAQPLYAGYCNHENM", "UniProt P10109": "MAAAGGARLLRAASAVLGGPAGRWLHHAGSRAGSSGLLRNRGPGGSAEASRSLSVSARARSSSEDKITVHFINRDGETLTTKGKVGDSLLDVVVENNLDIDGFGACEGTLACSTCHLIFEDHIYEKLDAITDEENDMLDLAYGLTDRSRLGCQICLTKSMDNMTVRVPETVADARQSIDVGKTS", "UniProt P13598": "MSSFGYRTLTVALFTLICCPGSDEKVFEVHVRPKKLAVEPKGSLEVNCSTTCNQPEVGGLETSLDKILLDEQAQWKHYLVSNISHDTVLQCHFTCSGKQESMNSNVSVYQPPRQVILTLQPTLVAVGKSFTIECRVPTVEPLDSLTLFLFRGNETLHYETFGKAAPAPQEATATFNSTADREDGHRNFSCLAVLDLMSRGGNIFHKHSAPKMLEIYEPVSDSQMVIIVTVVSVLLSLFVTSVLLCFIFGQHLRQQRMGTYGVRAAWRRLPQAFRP", "UniProt P11441": "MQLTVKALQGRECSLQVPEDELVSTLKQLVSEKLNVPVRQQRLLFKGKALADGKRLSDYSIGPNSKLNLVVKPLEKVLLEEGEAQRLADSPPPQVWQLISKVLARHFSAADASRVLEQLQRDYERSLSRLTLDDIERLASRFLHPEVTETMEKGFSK", "UniProt P15374": "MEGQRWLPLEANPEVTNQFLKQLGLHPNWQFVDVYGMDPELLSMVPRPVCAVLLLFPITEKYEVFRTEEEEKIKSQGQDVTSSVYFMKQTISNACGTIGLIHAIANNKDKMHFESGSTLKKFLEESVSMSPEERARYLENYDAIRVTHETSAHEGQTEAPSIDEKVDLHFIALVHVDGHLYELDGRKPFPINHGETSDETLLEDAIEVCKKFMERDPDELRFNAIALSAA", "UniProt P06400": "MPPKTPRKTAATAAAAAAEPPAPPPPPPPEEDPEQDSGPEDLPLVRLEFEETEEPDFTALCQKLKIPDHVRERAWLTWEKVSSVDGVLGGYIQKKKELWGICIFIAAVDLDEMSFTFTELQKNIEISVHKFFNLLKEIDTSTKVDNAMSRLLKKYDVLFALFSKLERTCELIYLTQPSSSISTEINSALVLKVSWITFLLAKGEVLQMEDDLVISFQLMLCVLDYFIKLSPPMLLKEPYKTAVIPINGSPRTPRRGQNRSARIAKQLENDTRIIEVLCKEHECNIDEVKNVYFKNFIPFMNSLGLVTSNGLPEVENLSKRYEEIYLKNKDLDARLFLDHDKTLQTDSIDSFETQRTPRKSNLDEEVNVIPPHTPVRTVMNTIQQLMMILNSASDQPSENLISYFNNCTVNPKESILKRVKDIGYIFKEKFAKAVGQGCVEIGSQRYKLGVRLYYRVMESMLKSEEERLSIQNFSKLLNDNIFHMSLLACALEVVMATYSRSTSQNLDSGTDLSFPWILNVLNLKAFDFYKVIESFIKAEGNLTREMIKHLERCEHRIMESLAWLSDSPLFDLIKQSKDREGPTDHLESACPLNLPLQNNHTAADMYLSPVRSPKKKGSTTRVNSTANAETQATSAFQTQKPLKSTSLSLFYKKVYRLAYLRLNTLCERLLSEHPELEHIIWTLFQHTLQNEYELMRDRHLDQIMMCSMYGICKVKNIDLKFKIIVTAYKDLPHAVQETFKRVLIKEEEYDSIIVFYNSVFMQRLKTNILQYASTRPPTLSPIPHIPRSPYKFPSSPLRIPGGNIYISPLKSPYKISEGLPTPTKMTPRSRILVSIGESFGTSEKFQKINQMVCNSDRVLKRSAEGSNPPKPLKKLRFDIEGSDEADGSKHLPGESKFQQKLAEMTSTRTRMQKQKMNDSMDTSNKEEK", "UniProt P13995": "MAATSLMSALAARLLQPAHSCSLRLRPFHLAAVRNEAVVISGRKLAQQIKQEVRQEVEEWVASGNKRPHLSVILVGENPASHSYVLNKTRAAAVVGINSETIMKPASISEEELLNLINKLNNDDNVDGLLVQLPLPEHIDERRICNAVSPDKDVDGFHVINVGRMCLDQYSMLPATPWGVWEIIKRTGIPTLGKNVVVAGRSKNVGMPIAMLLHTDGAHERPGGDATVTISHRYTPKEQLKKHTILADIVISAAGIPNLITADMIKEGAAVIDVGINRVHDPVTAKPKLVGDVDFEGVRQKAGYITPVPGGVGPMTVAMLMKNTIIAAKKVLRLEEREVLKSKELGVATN"}, "source": "the supplement of paper PMC6411743", "note": "± gives the standard deviation of the averaged measurements. The entries are a selection whose mix differs from that of the whole data set. Most entries show no effect beyond the scatter of the controls."}
{"compound": "Nc1ncnc2c1ncn2[C@@H]1O[C@H](COP(=O)(O)OP(=O)(O)NP(=O)(O)O)[C@@H](O)[C@H]1O [adenylyl imidodiphosphate]", "assay": "NP40-soluble protein abundance relative to vehicle (solubility fold change) (ratio); higher = more soluble protein in presence of AMP-PNP", "conditions": "concentration: 0.1mM", "how_it_was_run": "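Jurkat crude lysate (Dounce-homogenised) was treated with eight concentrations from 0.1 to 10 mM for 10 min at room temperature, then 3 min at 37 °C. It was solubilised with 0.8% NP40 and benzonase (60 min, 4 °C) and ultracentrifuged, and the supernatant was TMT-labelled for LC-MS/MS. Intensities were vsn-normalised, and the value is the fold change against the NP40-processed vehicle per replicate, from three independent experiments.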"}
{"target": "SLC25A6 (UniProt P12236)", "NP40-soluble protein abundance": "0.972 ± 0.045"}
{"target": "HIST1H1C (UniProt P16403)", "NP40-soluble protein abundance": "0.987 ± 0.038"}
{"target": "COX5B (UniProt P10606)", "NP40-soluble protein abundance": "0.979 ± 0.036"}
{"target": "UniProt P06396-2", "NP40-soluble protein abundance": "1.06 ± 0.064"}
{"target": "UniProt O95985 and related entries", "NP40-soluble protein abundance": "1.01 ± 0.024"}
{"target": "UniProt P06576 and related entries", "NP40-soluble protein abundance": "1.02 ± 0.026"}
{"target": "STMN1 (UniProt P16949)", "NP40-soluble protein abundance": "0.962 ± 0.061"}
{"target": "P0DN79 and related entries (UniProt P35520+P0DN79)", "NP40-soluble protein abundance": "1.01 ± 0.013"}
{"target": "UniProt P10586 and related entries", "NP40-soluble protein abundance": "1.01 ± 0.033"}
{"target": "UniProt P09497-2", "NP40-soluble protein abundance": "1 ± 0.038"}
{"target": "SLC2A1 (UniProt P11166)", "NP40-soluble protein abundance": "1.02 ± 0.069"}
{"target": "DLD (UniProt P09622)", "NP40-soluble protein abundance": "1.03 ± 0.027"}
{"target": "NCK1 (UniProt P16333)", "NP40-soluble protein abundance": "0.996 ± 0.033"}
{"target": "ANXA2 (UniProt P07355)", "NP40-soluble protein abundance": "0.944 ± 0.014"}
{"target": "UniProt P15291 and related entries", "NP40-soluble protein abundance": "0.988 ± 0.031"}
{"target": "COX6C (UniProt P09669)", "NP40-soluble protein abundance": "1.08 ± 0.16"}
{"target": "UniProt P16435 and related entries", "NP40-soluble protein abundance": "1.01 ± 0.029"}
{"target": "EEF2 (UniProt P13639)", "NP40-soluble protein abundance": "0.9858 ± 0.0067"}
{"target": "MGMT (UniProt P16455)", "NP40-soluble protein abundance": "0.977 ± 0.018"}
{"target": "UniProt P14151 and related entries", "NP40-soluble protein abundance": "1 ± 0.035"}
{"target": "HEXB (UniProt P07686)", "NP40-soluble protein abundance": "1.03 ± 0.012"}
{"target": "DDAH2 (UniProt O95865)", "NP40-soluble protein abundance": "1.02 ± 0.017"}
{"target": "UniProt P09960 and related entries", "NP40-soluble protein abundance": "1.01 ± 0.038"}
{"target": "FDX1 (UniProt P10109)", "NP40-soluble protein abundance": "0.943 ± 0.014"}
{"target": "UniProt P04150 and related entries", "NP40-soluble protein abundance": "1 ± 0.028"}
{"target": "UniProt P11274 and related entries", "NP40-soluble protein abundance": "1.03 ± 0.03"}
{"target": "UniProt P09651-2|P09651", "NP40-soluble protein abundance": "1.04 ± 0.073"}
{"target": "ICAM2 (UniProt P13598)", "NP40-soluble protein abundance": "0.984 ± 0.018"}
{"target": "UniProt P16383 and related entries", "NP40-soluble protein abundance": "1.01 ± 0.025"}
{"target": "UBL4A (UniProt P11441)", "NP40-soluble protein abundance": "1.016 ± 0.0058"}
{"target": "UCHL3 (UniProt P15374)", "NP40-soluble protein abundance": "1.01 ± 0.037"}
{"target": "RB1 (UniProt P06400)", "NP40-soluble protein abundance": "1 ± 0.011"}
{"target": "UniProt P00390 and related entries", "NP40-soluble protein abundance": "1 ± 0.024"}
{"target": "MTHFD2 (UniProt P13995)", "NP40-soluble protein abundance": "1.02 ± 0.027"}
{"target": "UniProt P15170-2|P15170-3|H3BSV8", "NP40-soluble protein abundance": "0.979 ± 0.013"}
{"target": "UniProt O96028 and related entries", "NP40-soluble protein abundance": "1.03 ± 0.025"}
{"target": "UniProt P13674-2|P13674", "NP40-soluble protein abundance": "0.995 ± 0.03"}
{"target": "DBT (UniProt P11182)", "NP40-soluble protein abundance": "1.01 ± 0.13"}
